± gives the standard deviation of the averaged measurements. The entries are a selection whose mix differs from that of the whole data set.
Compound: Nc1ncnc2c1ncn2[C@@H]1O[C@H](COP(=O)(O)OP(=O)(O)NP(=O)(O)O)[C@@H](O)[C@H]1O [adenylyl imidodiphosphate]
Assay: NP40-soluble protein abundance relative to vehicle (solubility fold change) (ratio); higher = more soluble protein in presence of AMP-PNP
Summary of the method: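 Eight concentrations, 0.1 to 10 mM, were tested on Jurkat crude lysate for 10 min at room temperature and then 3 min at 37 °C, in three independent experiments. The lysate was solubilised with 0.8% NP40 and benzonase, ultracentrifuged, and the supernatant TMT-labelled for LC-MS/MS. Each value is the fold change against the detergent-processed vehicle in its own replicate, from vsn-normalised intensities.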

By UniProt entry, the sequences of proteins in these tests, tags left out. Where a name states a change or a piece, a line headed by the entry shows the natural chain unless it says otherwise.
UniProt Q9BTK6, whole entry: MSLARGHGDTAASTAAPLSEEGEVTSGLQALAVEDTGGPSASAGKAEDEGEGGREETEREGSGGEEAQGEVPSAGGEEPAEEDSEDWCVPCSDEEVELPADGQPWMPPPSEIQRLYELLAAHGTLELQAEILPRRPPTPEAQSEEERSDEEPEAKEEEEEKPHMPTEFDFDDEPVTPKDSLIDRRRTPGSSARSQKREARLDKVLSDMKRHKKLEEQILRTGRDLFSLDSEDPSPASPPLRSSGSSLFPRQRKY
UniProt Q9BUT1: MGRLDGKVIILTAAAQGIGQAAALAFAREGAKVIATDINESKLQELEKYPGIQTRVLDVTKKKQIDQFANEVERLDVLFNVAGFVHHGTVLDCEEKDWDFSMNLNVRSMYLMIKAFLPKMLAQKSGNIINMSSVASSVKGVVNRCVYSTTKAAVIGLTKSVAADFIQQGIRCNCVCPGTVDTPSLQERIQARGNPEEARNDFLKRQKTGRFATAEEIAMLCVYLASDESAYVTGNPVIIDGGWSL
UniProt Q99623, whole entry: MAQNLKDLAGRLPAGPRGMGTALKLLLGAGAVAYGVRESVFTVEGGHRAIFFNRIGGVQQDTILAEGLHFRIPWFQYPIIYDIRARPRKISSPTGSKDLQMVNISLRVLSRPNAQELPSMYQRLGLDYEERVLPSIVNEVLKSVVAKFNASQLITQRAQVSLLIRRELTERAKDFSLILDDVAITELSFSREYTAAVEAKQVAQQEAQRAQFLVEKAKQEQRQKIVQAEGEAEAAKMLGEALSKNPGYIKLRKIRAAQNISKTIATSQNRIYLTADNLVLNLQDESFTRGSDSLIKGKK
UniProt Q96S99: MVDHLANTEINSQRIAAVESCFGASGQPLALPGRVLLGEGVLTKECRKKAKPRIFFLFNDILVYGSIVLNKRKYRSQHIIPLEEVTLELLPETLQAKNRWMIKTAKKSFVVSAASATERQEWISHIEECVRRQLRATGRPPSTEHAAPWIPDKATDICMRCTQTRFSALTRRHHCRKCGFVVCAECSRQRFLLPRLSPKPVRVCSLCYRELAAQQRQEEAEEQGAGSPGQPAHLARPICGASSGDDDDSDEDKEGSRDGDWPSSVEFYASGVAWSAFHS
UniProt Q9BW62: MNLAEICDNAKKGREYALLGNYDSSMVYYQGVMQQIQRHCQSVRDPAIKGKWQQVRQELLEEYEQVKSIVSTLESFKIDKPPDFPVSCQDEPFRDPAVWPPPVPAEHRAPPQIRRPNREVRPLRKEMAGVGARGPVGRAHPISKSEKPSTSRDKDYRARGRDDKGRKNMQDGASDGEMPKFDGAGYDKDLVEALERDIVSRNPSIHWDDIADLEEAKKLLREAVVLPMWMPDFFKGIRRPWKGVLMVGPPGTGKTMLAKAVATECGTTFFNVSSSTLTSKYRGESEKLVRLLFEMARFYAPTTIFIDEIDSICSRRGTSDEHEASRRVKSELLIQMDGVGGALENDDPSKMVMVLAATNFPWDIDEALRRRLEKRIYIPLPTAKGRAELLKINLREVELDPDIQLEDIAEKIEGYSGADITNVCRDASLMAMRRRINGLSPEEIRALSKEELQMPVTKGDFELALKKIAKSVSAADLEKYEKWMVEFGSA
UniProt Q9BRT2: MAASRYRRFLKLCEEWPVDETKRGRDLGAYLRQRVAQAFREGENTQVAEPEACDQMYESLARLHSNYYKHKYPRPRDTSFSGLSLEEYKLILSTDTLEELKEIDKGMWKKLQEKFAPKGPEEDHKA
UniProt Q9BYE7: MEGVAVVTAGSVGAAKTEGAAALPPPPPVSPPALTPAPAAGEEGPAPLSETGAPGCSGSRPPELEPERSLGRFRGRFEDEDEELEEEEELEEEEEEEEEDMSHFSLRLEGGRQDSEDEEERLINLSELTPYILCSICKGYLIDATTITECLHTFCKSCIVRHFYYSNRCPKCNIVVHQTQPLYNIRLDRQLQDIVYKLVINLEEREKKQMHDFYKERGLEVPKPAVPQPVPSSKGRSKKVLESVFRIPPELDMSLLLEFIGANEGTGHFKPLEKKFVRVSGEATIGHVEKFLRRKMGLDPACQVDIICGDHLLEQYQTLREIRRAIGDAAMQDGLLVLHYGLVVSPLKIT
UniProt Q9BXW7: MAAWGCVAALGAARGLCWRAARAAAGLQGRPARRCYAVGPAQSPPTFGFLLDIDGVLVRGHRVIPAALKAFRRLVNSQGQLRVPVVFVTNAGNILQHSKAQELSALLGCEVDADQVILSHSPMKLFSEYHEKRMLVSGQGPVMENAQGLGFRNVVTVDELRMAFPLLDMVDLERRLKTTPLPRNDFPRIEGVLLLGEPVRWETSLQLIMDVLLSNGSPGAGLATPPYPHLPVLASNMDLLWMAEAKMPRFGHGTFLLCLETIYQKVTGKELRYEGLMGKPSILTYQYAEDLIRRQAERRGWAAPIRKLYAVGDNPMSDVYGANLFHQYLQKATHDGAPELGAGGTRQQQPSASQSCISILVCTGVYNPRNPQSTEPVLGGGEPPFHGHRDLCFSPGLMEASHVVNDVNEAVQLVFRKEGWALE
UniProt Q9BW27: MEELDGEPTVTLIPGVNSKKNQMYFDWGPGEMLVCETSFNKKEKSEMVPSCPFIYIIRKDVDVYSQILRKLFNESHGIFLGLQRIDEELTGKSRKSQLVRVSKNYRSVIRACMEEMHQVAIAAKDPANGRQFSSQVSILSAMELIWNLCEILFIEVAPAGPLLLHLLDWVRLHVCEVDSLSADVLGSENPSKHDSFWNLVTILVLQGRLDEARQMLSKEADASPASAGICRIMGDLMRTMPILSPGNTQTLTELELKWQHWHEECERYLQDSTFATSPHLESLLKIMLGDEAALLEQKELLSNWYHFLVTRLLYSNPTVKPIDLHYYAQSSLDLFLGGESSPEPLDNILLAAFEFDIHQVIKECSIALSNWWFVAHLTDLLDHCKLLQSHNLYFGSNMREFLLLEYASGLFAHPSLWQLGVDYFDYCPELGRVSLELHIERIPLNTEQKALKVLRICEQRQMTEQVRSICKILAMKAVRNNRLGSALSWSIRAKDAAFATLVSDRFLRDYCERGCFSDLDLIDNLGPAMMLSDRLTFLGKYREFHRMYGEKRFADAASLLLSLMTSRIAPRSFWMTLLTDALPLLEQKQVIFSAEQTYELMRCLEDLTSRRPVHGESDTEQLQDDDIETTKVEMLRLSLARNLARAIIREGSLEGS
UniProt Q9BRX2, whole entry: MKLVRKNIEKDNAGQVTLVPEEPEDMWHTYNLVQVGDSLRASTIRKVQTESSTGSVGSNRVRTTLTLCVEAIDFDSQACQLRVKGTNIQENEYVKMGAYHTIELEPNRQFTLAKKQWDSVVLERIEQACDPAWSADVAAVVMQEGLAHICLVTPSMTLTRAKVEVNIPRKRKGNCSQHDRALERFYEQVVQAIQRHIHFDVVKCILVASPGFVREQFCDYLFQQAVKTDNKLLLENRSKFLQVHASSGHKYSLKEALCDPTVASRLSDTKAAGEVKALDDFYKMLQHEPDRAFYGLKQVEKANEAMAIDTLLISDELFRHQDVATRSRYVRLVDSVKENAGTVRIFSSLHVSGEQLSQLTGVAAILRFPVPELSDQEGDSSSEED
UniProt Q9BYN0: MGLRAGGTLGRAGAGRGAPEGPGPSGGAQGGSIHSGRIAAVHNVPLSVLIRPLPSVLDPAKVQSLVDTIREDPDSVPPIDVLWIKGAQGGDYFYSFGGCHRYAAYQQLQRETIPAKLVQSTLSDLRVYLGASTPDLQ
UniProt Q9BYW2: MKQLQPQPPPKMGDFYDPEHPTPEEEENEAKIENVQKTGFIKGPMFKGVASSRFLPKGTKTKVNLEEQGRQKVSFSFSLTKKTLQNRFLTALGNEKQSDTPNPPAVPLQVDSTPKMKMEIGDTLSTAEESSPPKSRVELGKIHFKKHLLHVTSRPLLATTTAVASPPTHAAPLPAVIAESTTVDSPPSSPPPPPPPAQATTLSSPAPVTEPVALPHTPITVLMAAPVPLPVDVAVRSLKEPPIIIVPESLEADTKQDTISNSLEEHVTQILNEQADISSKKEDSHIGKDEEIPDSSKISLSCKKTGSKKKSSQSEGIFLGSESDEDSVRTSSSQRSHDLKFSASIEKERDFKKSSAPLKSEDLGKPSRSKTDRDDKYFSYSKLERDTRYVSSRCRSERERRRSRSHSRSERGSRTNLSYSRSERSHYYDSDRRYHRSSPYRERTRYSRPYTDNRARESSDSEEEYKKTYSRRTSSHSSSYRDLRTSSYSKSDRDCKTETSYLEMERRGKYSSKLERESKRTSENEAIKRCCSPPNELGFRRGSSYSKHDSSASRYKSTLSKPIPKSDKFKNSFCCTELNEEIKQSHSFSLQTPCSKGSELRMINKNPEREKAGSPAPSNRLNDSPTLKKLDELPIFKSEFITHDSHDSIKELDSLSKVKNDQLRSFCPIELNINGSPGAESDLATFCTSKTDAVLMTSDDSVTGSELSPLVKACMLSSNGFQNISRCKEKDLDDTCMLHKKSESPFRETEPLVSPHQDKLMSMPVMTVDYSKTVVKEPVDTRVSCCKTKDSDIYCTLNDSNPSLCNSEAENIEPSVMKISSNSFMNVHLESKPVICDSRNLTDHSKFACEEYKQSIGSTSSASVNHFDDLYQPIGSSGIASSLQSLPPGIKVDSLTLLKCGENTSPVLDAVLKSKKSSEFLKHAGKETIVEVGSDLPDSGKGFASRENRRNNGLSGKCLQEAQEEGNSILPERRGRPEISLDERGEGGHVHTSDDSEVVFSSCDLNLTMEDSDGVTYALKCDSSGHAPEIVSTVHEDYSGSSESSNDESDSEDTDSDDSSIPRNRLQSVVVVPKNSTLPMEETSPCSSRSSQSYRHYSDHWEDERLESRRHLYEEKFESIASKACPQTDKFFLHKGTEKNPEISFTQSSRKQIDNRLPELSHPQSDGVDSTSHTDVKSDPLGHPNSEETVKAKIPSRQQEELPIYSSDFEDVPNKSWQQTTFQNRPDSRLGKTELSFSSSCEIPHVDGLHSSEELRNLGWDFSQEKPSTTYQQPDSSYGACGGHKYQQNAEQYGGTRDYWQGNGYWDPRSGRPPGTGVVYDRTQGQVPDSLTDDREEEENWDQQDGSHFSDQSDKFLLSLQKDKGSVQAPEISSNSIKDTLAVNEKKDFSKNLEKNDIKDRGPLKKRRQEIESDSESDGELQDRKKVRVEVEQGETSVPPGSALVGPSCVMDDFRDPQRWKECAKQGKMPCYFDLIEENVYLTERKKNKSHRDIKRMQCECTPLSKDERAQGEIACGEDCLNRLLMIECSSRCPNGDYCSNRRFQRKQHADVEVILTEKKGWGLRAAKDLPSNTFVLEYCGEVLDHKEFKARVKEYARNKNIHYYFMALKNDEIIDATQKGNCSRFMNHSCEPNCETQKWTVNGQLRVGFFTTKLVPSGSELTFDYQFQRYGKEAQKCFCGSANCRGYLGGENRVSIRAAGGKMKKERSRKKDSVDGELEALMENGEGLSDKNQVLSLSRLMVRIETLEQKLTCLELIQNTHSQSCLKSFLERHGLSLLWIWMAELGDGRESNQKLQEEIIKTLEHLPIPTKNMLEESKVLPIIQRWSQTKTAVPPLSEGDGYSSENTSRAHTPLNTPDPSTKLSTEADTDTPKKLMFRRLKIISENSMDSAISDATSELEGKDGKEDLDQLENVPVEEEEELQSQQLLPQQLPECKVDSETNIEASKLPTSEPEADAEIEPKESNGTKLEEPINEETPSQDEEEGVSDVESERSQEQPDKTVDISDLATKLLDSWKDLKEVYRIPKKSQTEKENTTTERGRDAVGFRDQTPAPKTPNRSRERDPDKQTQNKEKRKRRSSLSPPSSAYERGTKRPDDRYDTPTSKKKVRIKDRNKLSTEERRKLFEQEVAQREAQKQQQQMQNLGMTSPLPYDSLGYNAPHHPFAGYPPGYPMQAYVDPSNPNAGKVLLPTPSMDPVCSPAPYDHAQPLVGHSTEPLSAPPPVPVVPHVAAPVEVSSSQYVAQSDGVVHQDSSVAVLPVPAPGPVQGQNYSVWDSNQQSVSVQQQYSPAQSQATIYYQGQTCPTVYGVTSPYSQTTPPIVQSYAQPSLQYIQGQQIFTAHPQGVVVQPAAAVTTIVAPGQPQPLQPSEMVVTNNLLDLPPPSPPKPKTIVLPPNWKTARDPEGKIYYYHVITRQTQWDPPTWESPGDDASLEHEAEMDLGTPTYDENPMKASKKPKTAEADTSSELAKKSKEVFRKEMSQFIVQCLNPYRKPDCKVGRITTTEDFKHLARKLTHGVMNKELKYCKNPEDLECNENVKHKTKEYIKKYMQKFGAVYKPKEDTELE
UniProt Q9BRP1: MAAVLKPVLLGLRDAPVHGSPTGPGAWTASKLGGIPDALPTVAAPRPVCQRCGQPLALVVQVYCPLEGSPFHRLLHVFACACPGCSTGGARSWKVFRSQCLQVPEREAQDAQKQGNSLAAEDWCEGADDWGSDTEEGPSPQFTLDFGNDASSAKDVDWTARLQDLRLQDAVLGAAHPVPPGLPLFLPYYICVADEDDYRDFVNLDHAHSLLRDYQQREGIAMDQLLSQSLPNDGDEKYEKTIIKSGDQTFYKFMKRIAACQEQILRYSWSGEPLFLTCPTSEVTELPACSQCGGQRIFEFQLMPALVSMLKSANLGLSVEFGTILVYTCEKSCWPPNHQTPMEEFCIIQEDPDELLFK

Target	NP40-soluble protein abundance (concentration: 1mM)	NP40-soluble protein abundance (concentration: 2mM)	NP40-soluble protein abundance (concentration: 4mM)	NP40-soluble protein abundance (concentration: 6mM)	NP40-soluble protein abundance (concentration: 8mM)	NP40-soluble protein abundance (concentration: 10mM)
UniProt Q9BTT6	1.021 ± 0.0053	0.954 ± 0.013	0.947 ± 0.013	0.989 ± 0.035	0.958 ± 0.019	0.9599 ± 0.0091
HSD17B10 (UniProt Q99714)	0.989 ± 0.042	0.992 ± 0.043	1 ± 0.062	1.1 ± 0.11	1.1 ± 0.08	1.1 ± 0.082
UniProt Q9BTK6	0.962 ± 0.026	0.998 ± 0.023	0.9633 ± 0.002	0.95 ± 0.022	0.968 ± 0.022	0.946 ± 0.019
DPH2 (UniProt Q9BQC3)	1.01 ± 0.041	0.973 ± 0.028	1 ± 0.021	0.998 ± 0.017	1.02 ± 0.023	1.01 ± 0.012
SH3GL2 (UniProt Q99962)	1.04 ± 0.026	1.04 ± 0.044	1.03 ± 0.057	0.992 ± 0.029	1.01 ± 0.03	0.998 ± 0.03
BDH2 (UniProt Q9BUT1)	1.02 ± 0.046	1.05 ± 0.12	0.999 ± 0.073	1.04 ± 0.048	1.03 ± 0.052	1.02 ± 0.042
UniProt Q99653	1.002 ± 0.0076	1.014 ± 0.0064	0.988 ± 0.026	0.988 ± 0.018	0.976 ± 0.02	0.969 ± 0.021
UniProt Q99767-2|Q99767	0.989 ± 0.021	1.01 ± 0.029	1 ± 0.082	0.9979 ± 0.0037	0.96 ± 0.03	0.982 ± 0.033
UniProt Q96TA2 and related entries	0.999 ± 0.037	0.952 ± 0.1	0.98 ± 0.032	0.973 ± 0.038	0.977 ± 0.046	0.968 ± 0.061
UniProt Q99623	0.937 ± 0.043	0.869 ± 0.046	0.905 ± 0.045	1.01 ± 0.012	1 ± 0.024	0.98 ± 0.093
UniProt Q9BRX8 and related entries	0.995 ± 0.032	0.943 ± 0.067	0.997 ± 0.017	0.966 ± 0.025	1 ± 0.02	0.921 ± 0.033
UniProt Q9BQG0 and related entries	0.996 ± 0.055	0.979 ± 0.075	1.01 ± 0.057	1.04 ± 0.13	1.04 ± 0.11	1.04 ± 0.075
COPS4 (UniProt Q9BT78)	0.932 ± 0.057	0.939 ± 0.017	0.927 ± 0.038	0.937 ± 0.086	0.967 ± 0.034	0.892 ± 0.083
UniProt Q99571 and related entries	0.986 ± 0.019	0.959 ± 0.019	0.971 ± 0.019	1.014 ± 0.0026	1.012 ± 0.0075	1.01 ± 0.039
PLEKHF1 (UniProt Q96S99)	0.93 ± 0.0023	0.938 ± 0.032	0.947 ± 0.05	0.986 ± 0.088	0.9985 ± 0.0049	1.004 ± 0.0072
KATNAL1 (UniProt Q9BW62)	1.02 ± 0.03	0.993 ± 0.041	0.9898 ± 0.0076	0.9557 ± 0.00015	0.949 ± 0.018	0.943 ± 0.039
ALG1 (UniProt Q9BT22)	0.962 ± 0.035	0.895 ± 0.049	0.958 ± 0.035	0.922 ± 0.028	0.952 ± 0.035	0.896 ± 0.029
UniProt Q9BSD7	1.15 ± 0.067	1.11 ± 0.12	1.15 ± 0.063	1.2 ± 0.05	1.19 ± 0.073	1.17 ± 0.058
UniProt Q99707 and related entries	1.02 ± 0.034	0.97 ± 0.071	0.989 ± 0.041	0.936 ± 0.011	0.936 ± 0.012	0.932 ± 0.013
SEC62 (UniProt Q99442)	0.959 ± 0.058	0.955 ± 0.081	0.92 ± 0.032	0.978 ± 0.083	0.962 ± 0.037	0.973 ± 0.046
UniProt Q9BYT3 and related entries	1.01 ± 0.014	1.04 ± 0.032	0.991 ± 0.049	0.989 ± 0.047	0.992 ± 0.023	0.9938 ± 0.0066
UniProt Q9BQ52 and related entries	1.01 ± 0.014	0.985 ± 0.04	1.008 ± 0.0077	0.994 ± 0.024	1.01 ± 0.02	1 ± 0.012
ARID3A (UniProt Q99856)	1 ± 0.049	1.06 ± 0.056	1.01 ± 0.036	1.02 ± 0.019	0.991 ± 0.015	1.04 ± 0.041
UniProt Q9BRT2 and related entries	1.03 ± 0.022	1.13 ± 0.11	1.03 ± 0.016	1.0141 ± 0.00091	1.025 ± 0.0039	1.011 ± 0.0053
SPATA5L1 (UniProt Q9BVQ7)	1.07 ± 0.024	1.07 ± 0.068	1.14 ± 0.032	1.12 ± 0.083	1.17 ± 0.055	1.16 ± 0.13
UniProt Q99447 and related entries	0.953 ± 0.019	0.896 ± 0.068	0.944 ± 0.012	0.927 ± 0.039	0.969 ± 0.027	0.888 ± 0.012
UniProt Q9BTE3 and related entries	0.977 ± 0.021	0.94 ± 0.052	0.9719 ± 0.0037	0.944 ± 0.024	0.958 ± 0.023	0.941 ± 0.018

For convenience, part of the list above.
Target	NP40-soluble protein abundance (concentration: 1mM)	NP40-soluble protein abundance (concentration: 2mM)	NP40-soluble protein abundance (concentration: 4mM)	NP40-soluble protein abundance (concentration: 6mM)	NP40-soluble protein abundance (concentration: 8mM)	NP40-soluble protein abundance (concentration: 10mM)
ARID3A (UniProt Q99856)	1 ± 0.049	1.06 ± 0.056	1.01 ± 0.036	1.02 ± 0.019	0.991 ± 0.015	1.04 ± 0.041
UniProt Q9BRT2 and related entries	1.03 ± 0.022	1.13 ± 0.11	1.03 ± 0.016	1.0141 ± 0.00091	1.025 ± 0.0039	1.011 ± 0.0053
SPATA5L1 (UniProt Q9BVQ7)	1.07 ± 0.024	1.07 ± 0.068	1.14 ± 0.032	1.12 ± 0.083	1.17 ± 0.055	1.16 ± 0.13

Remaining list, next part.

Target	NP40-soluble protein abundance (concentration: 1mM)	NP40-soluble protein abundance (concentration: 2mM)	NP40-soluble protein abundance (concentration: 4mM)	NP40-soluble protein abundance (concentration: 6mM)	NP40-soluble protein abundance (concentration: 8mM)	NP40-soluble protein abundance (concentration: 10mM)
ACBD6 (UniProt Q9BR61)	1.02 ± 0.029	1.07 ± 0.061	1.03 ± 0.021	0.995 ± 0.051	0.975 ± 0.02	0.99 ± 0.012
PARK7 (UniProt Q99497)	1.01 ± 0.017	1.03 ± 0.019	0.962 ± 0.043	0.969 ± 0.022	0.926 ± 0.032	0.934 ± 0.08
PCGF6 (UniProt Q9BYE7)	1.01 ± 0.022	0.997 ± 0.026	0.969 ± 0.024	0.995 ± 0.02	0.986 ± 0.03	0.982 ± 0.02
UniProt Q9BQI0 and related entries	0.991 ± 0.028	0.997 ± 0.027	0.98 ± 0.056	0.962 ± 0.034	0.971 ± 0.046	0.986 ± 0.041
UniProt Q99828 and related entries	1.001 ± 0.0091	0.977 ± 0.03	0.993 ± 0.035	0.9794 ± 0.0058	0.949 ± 0.036	0.95 ± 0.025
UniProt Q9BZ23 and related entries	0.978 ± 0.02	0.971 ± 0.02	0.9738 ± 0.0057	0.9781 ± 0.0054	0.9885 ± 0.007	0.978 ± 0.022
UniProt Q9BQS8 and related entries	0.99 ± 0.062	1.03 ± 0.032	1 ± 0.026	0.976 ± 0.051	0.963 ± 0.038	0.97 ± 0.04
UniProt Q9BXW7 and related entries	1.02 ± 0.033	0.944 ± 0.08	1.03 ± 0.038	0.98 ± 0.015	1.05 ± 0.046	0.953 ± 0.034
NUP85 (UniProt Q9BW27)	0.992 ± 0.047	0.89 ± 0.056	0.959 ± 0.013	0.949 ± 0.038	0.967 ± 0.018	0.94 ± 0.032
CORO1B (UniProt Q9BR76)	1.06 ± 0.034	1.06 ± 0.043	1.06 ± 0.033	1.05 ± 0.045	1.06 ± 0.044	1.07 ± 0.05
UniProt Q9BRG1 and related entries	1.04 ± 0.028	0.957 ± 0.094	1.02 ± 0.063	0.931 ± 0.043	0.982 ± 0.071	0.942 ± 0.099
PELO (UniProt Q9BRX2)	0.972 ± 0.012	0.918 ± 0.05	0.961 ± 0.025	0.977 ± 0.014	1.01 ± 0.011	0.974 ± 0.016
UniProt Q9BYG3	1.02 ± 0.024	1.07 ± 0.042	1.07 ± 0.024	1.09 ± 0.016	1.09 ± 0.029	1.12 ± 0.035
UniProt Q9BW83 and related entries	1.04 ± 0.017	1.02 ± 0.018	1.03 ± 0.017	0.998 ± 0.012	0.976 ± 0.014	0.9931 ± 0.0052
OSBPL1A (UniProt Q9BXW6)	1.04 ± 0.028	1.05 ± 0.058	1.06 ± 0.047	1.018 ± 0.0099	1 ± 0.023	1.02 ± 0.038
SH3GL1 (UniProt Q99961)	1.01 ± 0.018	1.05 ± 0.044	0.995 ± 0.017	0.987 ± 0.033	0.961 ± 0.016	0.99 ± 0.013
SMAD5 (UniProt Q99717)	1.02 ± 0.018	1.016 ± 0.0063	1.03 ± 0.023	0.998 ± 0.011	1.026 ± 0.0052	1.03 ± 0.05
SDF2 (UniProt Q99470)	0.975 ± 0.024	0.977 ± 0.056	0.946 ± 0.083	0.931 ± 0.057	0.902 ± 0.067	0.954 ± 0.019
GRWD1 (UniProt Q9BQ67)	1.09 ± 0.064	1.01 ± 0.089	1.11 ± 0.068	1.05 ± 0.043	1.11 ± 0.073	1.04 ± 0.045
PFDN5 (UniProt Q99471)	0.962 ± 0.011	1.04 ± 0.12	0.947 ± 0.037	0.929 ± 0.045	0.886 ± 0.062	0.918 ± 0.032
SRXN1 (UniProt Q9BYN0)	0.994 ± 0.025	1.03 ± 0.024	0.9992 ± 0.0044	0.9857 ± 0.0064	0.9851 ± 0.0097	0.994 ± 0.016
AGPAT1 (UniProt Q99943)	1.02 ± 0.035	0.977 ± 0.015	1 ± 0.033	0.991 ± 0.029	0.994 ± 0.023	0.954 ± 0.048
UniProt Q99729-3	0.979 ± 0.074	1.06 ± 0.06	0.959 ± 0.079	0.995 ± 0.1	0.934 ± 0.068	0.99 ± 0.081
CPPED1 (UniProt Q9BRF8)	0.979 ± 0.049	0.932 ± 0.057	0.982 ± 0.02	0.976 ± 0.028	0.986 ± 0.043	0.938 ± 0.039
SETD2 (UniProt Q9BYW2)	1.06 ± 0.038	1.11 ± 0.059	1.08 ± 0.022	1.02 ± 0.042	1.02 ± 0.011	1.05 ± 0.013
PDCD2L (UniProt Q9BRP1)	1.01 ± 0.035	1.03 ± 0.016	1.03 ± 0.035	1.02 ± 0.021	1.033 ± 0.0075	1.03 ± 0.024
UniProt Q9BYD6 and related entries	1.01 ± 0.064	1.03 ± 0.04	1.03 ± 0.099	1.06 ± 0.07	1.06 ± 0.071	1.13 ± 0.12

An excerpt from above, reduced to NP40-soluble protein abundance (concentration: 6mM).
Target	NP40-soluble protein abundance (concentration: 6mM)
UniProt Q9BQS8 and related entries	0.976 ± 0.051
CPPED1 (UniProt Q9BRF8)	0.976 ± 0.028
